Laboratory results reported in the supplement of paper PMC8166895.
Counter-ions that a name gives are not always drawn. The list shows a part of the results. Most entries show no effect beyond the scatter of the controls.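 Melting temperature was read by differential scanning fluorimetry in a single-replicate pilot screen of a library of approved drugs and clinical or known-target compounds. Compounds raising the melting point by at least 2 °C were the top stabilizing hits, and negative shifts mean destabilization.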

System: SARS-CoV-2 main protease (Mpro, nsp5)
Test: thermal shift ΔTm of Mpro relative to plate average Tm; higher = stronger thermal stabilization of Mpro (binding)
Settings: 10 µM; protein concentration 1 µM

Structure (SMILES)	thermal shift ΔTm of Mpro [°C]
C=CCN(C)CCCCCCOc1ccc(C(=O)c2ccc(Br)cc2)c(F)c1 [Ro 48-8071 fumarate]	-0.0284
CC1=C2C[C@H]3[C@@H](CC(=O)[C@H]4C[C@@H](O)CC[C@@]43C)[C@@H]2CC[C@]12O[C@@H]1C[C@H](C)CN[C@H]1[C@H]2C [Peimisine]	-0.0353
CCCNC(=O)NS(=O)(=O)c1ccc(Cl)cc1 [Chlorpropamide]	-0.0864
COc1ccc(Cl)c(Nc2nc3ccccc3nc2NS(=O)(=O)c2cccc(NC(=O)C(C)(C)N)c2)c1 [Pilaralisib (XL147)]	1.02
CC(=O)O[C@]1(C(C)=O)CC[C@H]2[C@@H]3C=C(Cl)C4=CC(=O)CC[C@]4(C)[C@H]3CC[C@@]21C [Chlormadinone acetate]	0.105
C=CCc1ccc2c(c1O)C(=O)c1ccccc1C2=O	0.127
COc1ccc(-c2nc(N3CCOCC3)c3sc(CN(C)c4ncc(C(=O)NO)cn4)cc3n2)cn1	-0.295
COc1cc(-c2ncn(/C=C\C(=O)OC(C)C)n2)cc(C(F)(F)F)c1	0.112
CCN(CC)c1ccc(/C=N/NC(=O)c2ccc(O)cc2)cc1	-0.0215
Nc1ccccc1NC(=O)c1cnccn1	-0.103
CO[C@H]1/C=C/O[C@@]2(C)Oc3c(C)c(O)c4c(O)c(c5c(nc6cc(C)ccn65)c4c3C2=O)NC(=O)/C(C)=C\C=C\[C@H](C)[C@H](O)[C@@H](C)[C@@H](O)[C@@H](C)[C@H](OC(C)=O)[C@@H]1C [Rifaximin]	-0.115
CN(C)S(=O)(=O)c1ccc2c(c1)/C(=C/c1cc3c([nH]1)CCCC3)C(=O)N2	0.0681
Clc1cccc(Cl)c1NC1=NCCN1 [Clonidine HCl]	-0.0379
C[C@]12C=CC(=O)N[C@@H]1CC[C@@H]1[C@@H]2CC[C@]2(C)[C@@H](C(=O)Nc3cc(C(F)(F)F)ccc3C(F)(F)F)CC[C@@H]12 [Dutasteride]	-0.144
O=C1[C@H]2CCCC[C@H]2C(=O)N1CCCCN1CCN(c2nsc3ccccc23)CC1 [Perospirone]	-0.118
CN(C)[C@@H]1C(=O)C(C(N)=O)=C(O)[C@@]2(O)C(=O)C3=C(O)c4c(O)cccc4[C@@](C)(O)[C@H]3C[C@@H]12 [Tetracycline]	-0.0392
CN(C)[C@@H]1C(=O)C(C(N)=O)=C(O)[C@@]2(O)C(=O)C3=C(O)c4c(O)cccc4[C@@](C)(O)[C@H]3C[C@@H]12 [Tetracycline HCl]	-0.0728
CCCCCCCCCCCCCCCC(=O)OC[C@H](O)[C@H]1OC(=O)C(O)=C1O [L-Ascorbyl 6-palmitate]	0.169
Nc1nc2c(ncn2COC(CO)CO)c(=O)[nH]1 [Ganciclovir]	0.0289
CC(NC(C)(C)C)C(=O)c1cccc(Cl)c1 (stereo not given) [Amfebutamone HCl]	-0.0029
Cc1csc(-c2nnc(Nc3ccc(Oc4ncccc4-c4ccnc(N)n4)cc3)c3ccccc23)c1	0.0142
NCCCCCC(=O)O [(6-)ε-Aminocaproic acid]	-0.202
c1ccc2c(CCNc3ccc(Nc4ccncc4)cc3)c[nH]c2c1	-0.157
NCc1cccnc1 [Picolamine]	0.384
COc1ccc2c(Oc3ccc(NC(=O)c4c(C)n(CC(C)(C)O)n(-c5ccccc5)c4=O)nc3)ccnc2c1	-0.166
COc1c(C)cnc(Cn2cnc3c(Cl)nc(N)nc32)c1C	0.0972
CC=CC(=O)N(CC)c1ccccc1C [Crotamiton]	0.284

Structure (SMILES)	thermal shift ΔTm of Mpro [°C]
CC(C)Oc1ccc(-c2cnc3c(-c4ccnc5ccccc45)cnn3c2)cc1	-0.301
Cc1nc2c([nH]1)-c1ccccc1N(C(=O)c1ccc(NC(=O)c3ccccc3-c3ccccc3)cc1)CC2 [Conivaptan HCl]	0.217
CNCCc1ccccn1 [Betahistine]	0.099
CNCCc1ccccn1 [Betahistine mesylate]	0.305
CNCCc1ccccn1 [Betahistine 2HCl]	0.15
CC1=C(C)C(=O)C(C(CCCCCC(=O)O)c2ccccc2)=C(C)C1=O (stereo not given) [Seratrodast]	0.139
COc1ccc(COc2ccc(CC#N)cc2)cc1	-0.0133
C[C@H]1CO[C@@H]2Cn3cc(C(=O)NCc4ccc(F)cc4F)c(=O)c(O)c3C(=O)N12	-0.0673
O=C(c1c(F)ccc(NS(=O)(=O)N2CC[C@@H](F)C2)c1F)c1c[nH]c2ncc(-c3cnc(C4CC4)nc3)cc12	-0.0224
OC(c1cc(-c2ccc(Cl)cc2)nc2ccccc12)C1CCCCN1 (stereo not given) [Vacquinol-1]	0.084
Cc1nc2c(-c3cnc(N)nc3)nc(N3CCOCC3)nc2n1C(C)C	-0.153
Nc1nccc(Oc2ccc(NC(=O)c3c[nH]cc(-c4ccc(F)cc4)c3=O)cc2F)c1Cl	-0.0122
C[C@H]1[C@H](C)CC[C@]2(C(=O)O)CC[C@]3(C)C(=CC[C@@H]4[C@@]5(C)CC[C@H](O)C(C)(C)[C@@H]5CC[C@]43C)[C@H]12 [Ursolic Acid]	0.452
O=C(c1ccc(F)cc1)C1CCN(CCn2c(=O)[nH]c3ccccc3c2=O)CC1 [Ketanserin]	0.274
Oc1ccc2c(c1)OC[C@H]1c3cc4c(cc3O[C@@H]21)OCO4 [Maackiain]	0.0119
NC(=O)Nc1cc(-c2cccc(F)c2)sc1C(=O)N[C@H]1CCCNC1	-0.138
COCCNC(=O)Nc1ccc2nc(-c3cccs3)c(-c3cccs3)nc2c1 [Ac-CoA Synthase Inhibitor1]	-0.213
Cc1[nH]cnc1CN1CCc2c(c3ccccc3n2C)C1=O [Alosetron hydrochloride]	0.384
O=S(=O)(c1cccc2c(O)nccc12)N1CCCNCC1 [Hydroxyfasudil Hydrochloride]	-0.0858
O=C(O)CCc1ccc(NCc2cccc(Oc3ccccc3)c2)cc1	-0.0918
CC(C)(C)c1cc(C=C(C#N)C#N)cc(Br)c1O	0.765
COc1cc(C(C)C)c(Oc2cnc(N)nc2N)cc1I	0.515
COC1=C(C)C(=O)O/C1=C1\O[C@@H]2CCCN3[C@@H](CC[C@H]3[C@@H]3C[C@H](C)C(=O)O3)[C@H]2[C@@H]1C [Protostemonine]	-0.0798
CC(=O)O[C@H]1CC[C@H]2[C@@H]3CCC4=CC(=O)CCC4=C3C=C[C@]12C [Trenbolone acetate]	0.0185
NCC(CC(=O)O)c1ccc(Cl)cc1 (stereo not given) [Baclofen]	0.0856
CCS(=O)(=O)N1CC(CC#N)(n2cc(-c3ncnc4[nH]ccc34)cn2)C1	-0.13
CCS(=O)(=O)N1CC(CC#N)(n2cc(-c3ncnc4[nH]ccc34)cn2)C1 [Baricitinib Phosphate]	0.387

An excerpt taken from the entries so far, as a working copy:
Structure (SMILES)	thermal shift ΔTm of Mpro [°C]
COC1=C(C)C(=O)O/C1=C1\O[C@@H]2CCCN3[C@@H](CC[C@H]3[C@@H]3C[C@H](C)C(=O)O3)[C@H]2[C@@H]1C [Protostemonine]	-0.0798
CC(=O)O[C@H]1CC[C@H]2[C@@H]3CCC4=CC(=O)CCC4=C3C=C[C@]12C [Trenbolone acetate]	0.0185
NCC(CC(=O)O)c1ccc(Cl)cc1 (stereo not given) [Baclofen]	0.0856

Continued.

Structure (SMILES)	thermal shift ΔTm of Mpro [°C]
CN(C)CCOC(c1ccccc1)c1ccccc1.Cn1c(=O)c2[nH]c(Cl)nc2n(C)c1=O [Dimenhydrinate]	0.0934
CCOC(=O)CC(SP(=S)(OC)OC)C(=O)OCC (stereo not given) [Malathion]	0.0513
Clc1ccc2c(c1)CCc1cccnc1C2=C1CCNCC1 [Desloratadine]	0.0946
CC(C)[C@]12O[C@H]1[C@@H]1O[C@]13[C@]1(O[C@H]1C[C@H]1C4=C(CC[C@@]13C)C(=O)OC4)[C@@H]2O [Triptolide (PG490)]	0.0143
O=C1NCC2(CCN(CCc3ccccc3)CC2)O1 [Fenspiride HCl]	-0.114
Cc1cc(C)c(S(=O)(=O)N(CCc2cccc(Br)c2)Cc2ccc(-c3cccc(S(C)(=O)=O)c3)cc2)c(C)c1	-0.16
Nc1nc(NCCNc2ncc(-n3ccnc3)c(-c3ccc(Cl)cc3Cl)n2)ccc1[N+](=O)[O-]	-0.0089
NC(=O)c1cc([N+](=O)[O-])cc([N+](=O)[O-])c1 [Nitromide]	0.265
CC1OC2(CS1)CN1CCC2CC1 (stereo not given) [Cevimeline hydrochloride hemihydrate]	0.134
CCOc1nc2cccc(C(=O)O)c2n1Cc1ccc(-c2ccccc2-c2nnn[nH]2)cc1 [Candesartan]	-0.121
COc1ccc2c(c1O)-c1c(OC)c(OC)cc3c1[C@H](C2)N(C)CC3 [(+)-Isocorydine hydrochloride]	-0.0786
COc1ccc2c(c1O)-c1c(OC)c(OC)cc3c1[C@H](C2)N(C)CC3 [S-Isocorydine(+)]	-0.0444
C[C@@](Cc1ccc(O)c(O)c1)(NN)C(=O)O [Carbidopa Hydrate]	-0.115
C[C@@](Cc1ccc(O)c(O)c1)(NN)C(=O)O [Carbidopa]	-0.66
O=C(Oc1cccc(F)c1OC(=O)c1cccc(O)c1)c1cccc(O)c1	0.138
C=CC(=O)Nc1cccc(Oc2nc(Nc3ccc(N4CCN(C)CC4)cc3)ncc2Cl)c1	0.551
CC1CCN(CC[C@H]2CCCN2S(=O)(=O)c2cccc(O)c2)CC1	-0.182
Nc1ncnc2c1ncn2[C@@H]1O[C@H](CO)[C@@H](O)[C@@H]1O [Vidarabine]	0.0231
Cc1noc(-c2ccc(-c3ccc(C4(C(=O)O)CC4)cc3)cc2)c1NC(=O)O[C@H](C)c1ccccc1	0.0427
COc1cn(-c2ccc(-n3cccn3)cc2F)nc(-c2ccnn2-c2ccccc2)c1=O	0.161
CCCCC(CC)COC(=O)CC(C(=O)OCC(CC)CCCC)S(=O)(=O)O (stereo not given) [Docusate sodium]	-0.267
O=C1CC[C@@]2(O)[C@H]3Cc4ccc(O)c5c4[C@@]2(CCN3CC2CC2)[C@H]1O5 [Naltrexone HCl]	0.234
CC(C)=CC(=O)CCC(=O)N1CCN(Cc2cc3nc(-c4cccc5[nH]ncc45)nc(N4CCOCC4)c3s2)CC1	-0.276
COc1cc(Nc2c(C#N)cnc3cc(OCCCN4CCN(C)CC4)c(OC)cc23)c(Cl)cc1Cl [Bosutinib (SKI-606)]	0.35
COc1ccc(C(c2c[nH]c3ccccc23)c2c[nH]c3ccccc23)cc1	-0.00109
CCCCc1oc2ccc(NS(C)(=O)=O)cc2c1C(=O)c1ccc(OCCCN(CCCC)CCCC)cc1 [Dronedarone HCl]	-0.00689
